This assay deals with P388 leukemia ip, CD2F1 mice, survival T/C. In words: NCI In Vivo Anticancer Drug Screen. Data for tumor model P388 Leukemia (intraperitoneal) in CD2F1 (CDF1) mice. Particulars: T/C endpoint: median survival time, higher T/C = longer survival.
[1] abbreviates: dose: 240.0 mg/kg/injection, schedule: Q01DX005 (ip), vehicle: saline.
Setting [2] is: dose: 12.5 mg/kg/injection, schedule: Q01DX005 (ip), vehicle: saline with Tween-80.
The mark [3] stands for this setting: dose: 25.0 mg/kg/injection, schedule: Q01DX005 (ip), vehicle: saline with Tween-80.
Where [4] appears, read: dose: 50.0 mg/kg/injection, schedule: Q01DX005 (ip), vehicle: saline with Tween-80.
[5] abbreviates: dose: 100.0 mg/kg/injection, schedule: Q01DX005 (ip), vehicle: saline with Tween-80.
The mark [6] stands for this setting: dose: 200.0 mg/kg/injection, schedule: Q01DX005 (ip), vehicle: saline with Tween-80.
Where [7] appears, read: dose: 100.0 mg/kg/injection, schedule: Q01DX005 (ip), vehicle: Klucel (hydroxypropylcellulose) (HPC).
The mark [8] stands for this setting: dose: 200.0 mg/kg/injection, schedule: Q01DX005 (ip), vehicle: Klucel (hydroxypropylcellulose) (HPC).
Setting [9] is: dose: 200.0 mg/kg/injection, schedule: Q01DX009 (ip), vehicle: saline with Tween-80.
Setting [10] is: dose: 50.0 mg/kg/injection, schedule: Q01DX009 (ip), vehicle: saline with Tween-80.
The mark [11] stands for this setting: dose: 100.0 mg/kg/injection, schedule: Q01DX009 (ip), vehicle: saline with Tween-80.
The mark [12] stands for this setting: dose: 200.0 mg/kg/injection, schedule: Q01DX009 (ip), vehicle: saline.

The list does not hold the whole screen: it gathers tests that were run many times, whatever their T/C, doses with no T/C, and many T/C values between a quarter and a half above the control. Further doses and runs are listed elsewhere. T/C: endpoint of the treated group in % of that of the vehicle group. Some entries give survivors of the animals treated and no T/C: the source holds a T/C of zero for them, seemingly a mark for toxic or unscored doses. Some doses without a T/C left all or most animals alive at the check, yet need not have been tolerated: the source hardly ever lists a survival T/C far under the control, and the zero likely stands for such cases as well. Counts of survivors are from the toxicity check (mostly the fifth day) where no day follows; animals may have died later. Schedules are NCI's codes, taken here to give the interval after Q, in days (D) or hours (H), and the number of doses after X. Additions like (4×) stand for listed records that agree. Where survival is the endpoint, this PubChem deposit counts one and a half times the control or more as active, and values a quarter to a half above the control carry no call in these data; other NCI protocols may use other cut-offs. Some doses were run more than once; the results are listed from low to high.

`Cc1cc(OCc2nc(N)nc(N)c2-c2ccc(Cl)c(Cl)c2)ccc1NS(=O)(=O)c1cccc(S(=O)(=O)F)c1`: the T/C is 127 % of control (dose: 117.0 mg/kg/injection, schedule: Q04DX003 (ip), vehicle: saline) and 127 % of control (dose: 264.0 mg/kg/injection, schedule: Q04DX003 (ip), vehicle: saline).

Regarding `CC(C)=CCCC(C)=CCON(C)C` (mixture of isomers), where the note is “dose: 400.0 mg/kg/injection, schedule: Q04DX002 (ip), vehicle: saline with Tween-80”, the survivor count was 1 of 6.

With `[Cl][Hg][Cl]`, the survivor count is on record as 5 of 6 (dose: 3.75 mg/kg/injection, schedule: Q01DX005 (ip), vehicle: saline); 0 of 6 (dose: 7.5 mg/kg/injection, schedule: Q01DX005 (ip), vehicle: saline); 0 of 6 (dose: 15.0 mg/kg/injection, schedule: Q01DX005 (ip), vehicle: saline); 0 of 6 (dose: 30.0 mg/kg/injection, schedule: Q01DX005 (ip), vehicle: saline); 0 of 6 (dose: 60.0 mg/kg/injection, schedule: Q01DX005 (ip), vehicle: saline); 0 of 6 (dose: 120.0 mg/kg/injection, schedule: Q01DX005 (ip), vehicle: saline). The survivor count under setting [1] is 0 of 6.

As for `Cn1c(=O)c2c(ncn2-c2ccc(N)cc2)n(C)c1=O`, the survivor count (dose: 100.0 mg/kg/injection, schedule: Q01DX005 (ip), vehicle: water) was 4 of 5 and the survivor count (dose: 200.0 mg/kg/injection, schedule: Q01DX005 (ip), vehicle: water) is on record as 0 of 5.

Turning to `N#CN(Cc1ccccc1)Cc1ccccc1.[Br][Sn]([c]1ccccc1)([c]1ccccc1)[c]1ccccc1`, the survivor count under setting [2] is 3 of 6; the survivor count under setting [3] is listed as 1 of 6; the survivor count under setting [4] is recorded as 0 of 6; the survivor count under setting [5] is 0 of 6; the survivor count under setting [6] is 0 of 6.

Turning to `C1=Cc2cc(CN3CCOCC3)ccc2Nc2ccccc21`, the survivor count (dose: 240.0 mg/kg/injection, schedule: Q01DX005 (ip), vehicle: Klucel (hydroxypropylcellulose) (HPC)) was 6 of 6.

With `O=C(N=C1SC(=NC2CCCCC2)N1C1CCCCC1)c1ccccc1`, the survivor count (dose: 400.0 mg/kg/injection, schedule: Q01DX001 (ip), vehicle: Klucel (hydroxypropylcellulose) (HPC)) is 0 of 6.

With `O=C(N/N=C/c1ccco1)C(=O)Nc1cccc(C(F)(F)F)c1`, the survivor count was 6 of 6 under setting [7] and 6 of 6 under setting [8].

As for `CC1SC(c2ccc(Cl)cc2)N2C(=O)C(C)SC(c3ccc(Cl)cc3)N2C1=O` (stereo unspecified), the survivor count under setting [9] is listed as 6 of 6.

As for `CC(=Nc1ccccc1)C1=C(O)C(Cc2ccccc2)NC1=O` (stereo unspecified), the T/C is 137 % of control under setting [10] and 141 % of control under setting [11]. In addition, the survivor count under setting [9] is 5 of 6.

As to `C1=C[N-]c2c3c(ccc2=C1)=CC=C[N-]3.C1=C[N-]c2c3c(ccc2=C1)=CC=C[N-]3.[Cl][Ru][Cl]`, the survivor count is, setting by setting: under setting [2], 1 of 6; under setting [3], 0 of 6; under setting [4], 0 of 6; under setting [5], 0 of 6; under setting [6], 0 of 6.

For the compound `O=C(NCCCl)Oc1ccc(Cl)cc1Cl`, the survivor count was 6 of 6 under setting [7] and 6 of 6 under setting [8].

Regarding `NC1C(=O)Nc2ccccc21` (stereo unspecified), the survivor count under setting [1] is 1 of 6.

Consider `Nc1nc2nc[nH]c(=O)c2[nH]1`, for which the survivor count under setting [5] is given as 0 of 6.

In the case of `COSc1ccc(C)cc1`, for the setting “dose: 400.0 mg/kg/injection, schedule: Q04DX003 (ip), vehicle: saline”, the survivor count is listed as 2 of 6.

Regarding `COc1ccc(COCc2ccc(OC)c(O)c2)cc1O`, under setting [9], the survivor count is recorded as 4 of 6.

Take `COc1ccc2nc(C)cc(N/N=C/c3cccc(C)n3)c2c1`: the T/C (dose: 50.0 mg/kg/injection, schedule: Q01DX009 (ip), vehicle: Klucel (hydroxypropylcellulose) (HPC)) is 125 % of control. Moreover, the survivor count (dose: 100.0 mg/kg/injection, schedule: Q01DX009 (ip), vehicle: Klucel (hydroxypropylcellulose) (HPC)) is 6 of 6 (2×) and the survivor count (dose: 200.0 mg/kg/injection, schedule: Q01DX009 (ip), vehicle: Klucel (hydroxypropylcellulose) (HPC)) is 5 of 6.

`COc1ccc(/C(C#N)=C/c2ccccc2)cc1`: the survivor count (dose: 50.0 mg/kg/injection, schedule: Q01DX009 (ip), vehicle: suspension in saline) is 6 of 6.

In the case of `CCc1nc(N)nc(N)c1-c1ccc(N(C)C)c(N)c1`, under setting [8], the survivor count was 0 of 6.

In the case of `NC(N)=NCC1CCCCCCN1` (stereo unspecified), the survivor count (dose: 50.0 mg/kg/injection, schedule: Q01DX009 (ip), vehicle: saline) was 1 of 6 and the survivor count under setting [12] is recorded as 3 of 6.

`CCCCCCC(=O)/C=C/c1ccc(OC(=O)c2ccc(Br)cc2)cc1`: the survivor count reads like this: under setting [10], 6 of 6; under setting [11], 6 of 6; under setting [9], 6 of 6.

For `S=c1s/c(=C\c2ccccc2)c2nc3ccccc3n12`, the survivor count under setting [12] is 6 of 6.

As to `[B-][N+]12CC[N+]([B-])(CC1)CC2`, for the setting “dose: 250.0 micrograms/kg/injection, schedule: Q01DX009 (ip), vehicle: saline”, the survivor count is given as 6 of 6.

As to `COc1cccc2c1C(=O)c1c(O)c3c(c(O)c1C2=O)C[C@@](O)(C(=O)CSC(C)=O)C[C@@H]3OC1CC(N)C(O)C(C)O1` (stereo partly specified), the T/C runs as follows: (dose: 1.56 mg/kg/injection, schedule: Q01DX009 (ip), vehicle: water) 128 and 129 % of control; (dose: 3.13 mg/kg/injection, schedule: Q01DX009 (ip), vehicle: water) 135 and 136 % of control; (dose: 6.25 mg/kg/injection, schedule: Q01DX009 (ip), vehicle: water) 135 and 145 % of control; (dose: 12.5 mg/kg/injection, schedule: Q01DX001 (ip), vehicle: water) 126 % of control; (dose: 12.5 mg/kg/injection, schedule: Q01DX009 (ip), vehicle: water) 146 % of control (2×); (dose: 25.0 mg/kg/injection, schedule: Q01DX001 (ip), vehicle: water) 129 % of control. Further, the survivor count is recorded as 3 of 6 (dose: 50.0 mg/kg/injection, schedule: Q01DX001 (ip), vehicle: water); 3 of 6 (dose: 100.0 mg/kg/injection, schedule: Q01DX001 (ip), vehicle: water); 0 of 6 (dose: 200.0 mg/kg/injection, schedule: Q01DX001 (ip), vehicle: water); 0 of 6 (dose: 400.0 mg/kg/injection, schedule: Q01DX001 (ip), vehicle: water).

For `CSC(=S)N/N=C(/C)c1ccco1`, the survivor count under setting [9] is 3 of 6.

`[CH3][Sn]([CH3])([n]1nnc2ccccc21)[n]1nnc2ccccc21`: under setting [8], the T/C is 125 % of control.

Turning to `CCC1=CC2CC(c3cc4c(cc3OC)N(C)C3C(O)(C(=O)NC)C(OC(C)=O)C5(CC)C=CCN6CCC43C65)c3[nH]c4ccccc4c3CCN(C1)C2` (stereo unspecified), the T/C (dose: 1.0 mg/kg/injection, schedule: Q01DX001 (ip), vehicle: water) is 127 % of control. The survivor count (dose: 50.0 mg/kg/injection, schedule: Q01DX001 (ip), vehicle: other) is recorded as 3 of 3.

`CCCCCCCCCCC(=O)[O][Sn]([CH](C)C)([CH](C)C)[CH](C)C`: the survivor count reads like this: (dose: 50.0 mg/kg/injection, schedule: Q01DX009 (ip), vehicle: saline + Tween-80 + alcohol) 0 of 6; (dose: 100.0 mg/kg/injection, schedule: Q01DX009 (ip), vehicle: saline + Tween-80 + alcohol) 0 of 6; (dose: 200.0 mg/kg/injection, schedule: Q01DX009 (ip), vehicle: saline + Tween-80 + alcohol) 0 of 6.

As for `CC1(Cl)CC(C)(/C=C/Cl)C(Br)CC1Cl` (stereo unspecified), the survivor count (dose: 332.0 mg/kg/injection, schedule: Q01DX005 (ip), vehicle: Klucel (hydroxypropylcellulose) (HPC)) is recorded as 6 of 6.

Source of the values: PubChem BioAssay AID330 (DTP/NCI, 2004).
